Experimental data as given in PMC5814579.
The exact form of at least one protein or probe is not confirmed. For part of these data: A negative result means that nothing was seen under these conditions.

Tests used:
[1] = system: OsASR2 (abscisic acid, stress and ripening 2) (Oryza sativa (rice, cultivar IRBB13)); experiment: EMSA; details: 1 ug protein per reaction, LightShift Chemiluminescent EMSA kit, 20 min at room temperature, salt and pH not stated, recombinant protein, protein details: Myc (stated in Results), pET-32a vector, label: biotin (dUTP end-labelled by terminal transferase)
[2] = system: OsASR2 (abscisic acid, stress and ripening 2) (Oryza sativa (rice, cultivar IRBB13)); experiment: competition with a labelled probe; details: 5-, 25-, 50-fold molar excess over labelled N1, bands weakened; LightShift Chemiluminescent EMSA kit; 1 ug protein per reaction; 20 min at room temperature; salt and pH not stated; recombinant protein; protein details: Myc (stated in Results), pET-32a vector

Sequence | binding result [1] | binding result [2]
GATTAAGACCCCCACTACCCTA (double strand) [mutant GT-1 probe (EMSA-M F/R)] | no binding | 
GATTAAGATTTTTCCTACCCTA (double strand) [GT-1 probe (EMSA F/R)] | binds | 
GATTAAGATTTTTCCTACCCTA (double strand) [unlabelled GT-1 competitor] |  | binds
